Measured data: PubChem BioAssay AID1259254 (NCATS, 2017)
Purpose: 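Finding genes that stop cells copying their DNA twice in one cycle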 (primary screen). Cell system: human HCT116 colorectal cancer cells. Knock-down reagent: single siRNA against human genes. Time to read-out: 3 days. Read-out: 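Nuclei stained with Hoechst and imaged; cell-cycle phase assigned by DNA content; G2 share scaled per plate, non-targeting siRNA 0%, GMNN siRNA 100%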. Reading the numbers: G2 robust z-score and G2 cells, % of GMNN control: higher = more G2 cells, more excess DNA replication; raw share of cells in G2: higher = larger share of cells with G2 DNA content. Active means: 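An siRNA counts as active if its G2 robust z-score lies at least 5 MADs above the screen median; here such calls match roughly 38% of GMNN control or more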.
In all, the deposit lists about 59,000 reagents; shown is a part drawn at random. Over the whole deposit, about 1,550 (2.6%) are marked active. 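G2 share is only a proxy for re-replication; each gene was hit by three separate siRNAs, and active genes were retested.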 Raw values vary from plate to plate and are shown uncorrected. Entries without a mark were called inactive. The numbers tell different reagents against one gene apart. Not stated in the record: the amount of reagent.

gene symbol	reagent no.	G2 robust z-score	G2 cells, % of GMNN control	raw share of cells in G2 (%)
ERAL1 (Era like 12S mitochondrial rRNA chaperone 1)	1	1.24	11.7	11.5
ERAL1 (Era like 12S mitochondrial rRNA chaperone 1)	2	-0.8	-2.66	3.3
ERAL1 (Era like 12S mitochondrial rRNA chaperone 1)	3	0.222	4.53	5.47
EIF3B (eukaryotic translation initiation factor 3 subunit B)	1	5.94 (active)	44.8	20.7
EIF3B (eukaryotic translation initiation factor 3 subunit B)	2	5.2 (active)	39.6	19.2
EIF3B (eukaryotic translation initiation factor 3 subunit B)	3	3.39	26.8	16.7
NECAP1 (NECAP endocytosis associated 1)	1	-0.232	1.33	4.91
NECAP1 (NECAP endocytosis associated 1)	2	-0.362	0.421	4.12
NECAP1 (NECAP endocytosis associated 1)	3	-0.45	-0.2	3.23
GOLGA2P11 (GOLGA2 pseudogene 11)	1	-0.332	0.631	3.4
GOLGA2P11 (GOLGA2 pseudogene 11)	2	-0.0795	2.41	4.45
GOLGA2P11 (GOLGA2 pseudogene 11)	3	-0.867	-3.14	2.06
GARNL3 (GTPase activating Rap/RanGAP domain like 3)	1	0.648	7.53	6.61
GARNL3 (GTPase activating Rap/RanGAP domain like 3)	2	-0.195	1.6	3.93
GARNL3 (GTPase activating Rap/RanGAP domain like 3)	3	-0.35	0.502	2.56
CPA4 (carboxypeptidase A4)	1	2.93	23.6	13.8
CPA4 (carboxypeptidase A4)	2	2.57	21.1	12.4
CPA4 (carboxypeptidase A4)	3	-1.03	-4.29	2.31
RAD18 (RAD18 E3 ubiquitin protein ligase)	1	2.6	21.3	15.8
RAD18 (RAD18 E3 ubiquitin protein ligase)	2	-0.305	0.819	4.73
RAD18 (RAD18 E3 ubiquitin protein ligase)	3	-0.476	-0.384	4.17
SLC24A5	1	4.42	34.1	18.3
SLC24A5	2	-0.214	1.46	4.82
SLC24A5	3	-0.0808	2.4	6.94
TIPRL (TOR signaling pathway regulator)	1	0.153	4.04	4.5
TIPRL (TOR signaling pathway regulator)	2	-0.875	-3.19	2.48
TIPRL (TOR signaling pathway regulator)	3	-0.415	0.0459	3.06
KRTAP7-1 (keratin associated protein 7-1)	1	-0.651	-1.61	3.43
KRTAP7-1 (keratin associated protein 7-1)	2	0.354	5.46	5.65
KRTAP7-1 (keratin associated protein 7-1)	3	0.522	6.64	6.86
ZNF510 (zinc finger protein 510)	1	0.209	4.44	5
ZNF510 (zinc finger protein 510)	2	-1.16	-5.17	3.68
ZNF510 (zinc finger protein 510)	3	-0.321	0.707	3.64
AGPS (alkylglycerone phosphate synthase)	1	-0.72	-2.1	4.53
AGPS (alkylglycerone phosphate synthase)	2	-1.08	-4.64	2.43
AGPS (alkylglycerone phosphate synthase)	3	-1.23	-5.71	2.66
UBN2 (ubinuclein 2)	1	1.58	14.1	8.69
UBN2 (ubinuclein 2)	2	0.601	7.19	5.59
UBN2 (ubinuclein 2)	3	1.65	14.6	7.84
GJA4 (gap junction protein alpha 4)	1	-0.32	0.715	5.18
GJA4 (gap junction protein alpha 4)	2	-0.159	1.85	4.2
GJA4 (gap junction protein alpha 4)	3	-0.35	0.505	3.29
HDHD5 (haloacid dehalogenase like hydrolase domain containing 5)	1	1.07	10.5	7.86
HDHD5 (haloacid dehalogenase like hydrolase domain containing 5)	2	0.305	5.12	6.48
HDHD5 (haloacid dehalogenase like hydrolase domain containing 5)	3	-0.708	-2.01	2.62
PTPN5 (protein tyrosine phosphatase non-receptor type 5)	1	-1.61	-8.38	2.07
PTPN5 (protein tyrosine phosphatase non-receptor type 5)	2	2.34	19.4	10.1
PTPN5 (protein tyrosine phosphatase non-receptor type 5)	3	-0.41	0.0815	3.52
SLC44A4	1	-0.451	-0.207	2.32
SLC44A4	2	-0.248	1.22	4.95
SLC44A4	3	0.09	3.6	5.88
TOP2A (DNA topoisomerase II alpha)	1	9 (active)	66.3	33.6
TOP2A (DNA topoisomerase II alpha)	2	15.6 (active)	113	41.7
TOP2A (DNA topoisomerase II alpha)	3	11 (active)	80.5	34.2
P3H1 (prolyl 3-hydroxylase 1)	1	-0.275	1.04	3.16
P3H1 (prolyl 3-hydroxylase 1)	2	-0.661	-1.68	5.15
P3H1 (prolyl 3-hydroxylase 1)	3	1.65	14.6	8.22
TBX6 (T-box transcription factor 6)	1	-0.765	-2.42	3.76
TBX6 (T-box transcription factor 6)	2	-0.998	-4.05	3.58
TBX6 (T-box transcription factor 6)	3	1.69	14.9	9.09
BHMT2 (betaine--homocysteine S-methyltransferase 2)	1	1.56	14	8.56
BHMT2 (betaine--homocysteine S-methyltransferase 2)	2	0.885	9.19	10.3
BHMT2 (betaine--homocysteine S-methyltransferase 2)	3	-0.438	-0.113	4.15
STARD4 (StAR related lipid transfer domain containing 4)	1	1.78	15.5	11.2
STARD4 (StAR related lipid transfer domain containing 4)	2	4.39	33.8	22.1
STARD4 (StAR related lipid transfer domain containing 4)	3	1.27	11.9	9.05
MBTPS2 (membrane bound transcription factor peptidase, site 2)	1	-1.29	-6.08	3.44
MBTPS2 (membrane bound transcription factor peptidase, site 2)	2	-0.238	1.29	5.36
MBTPS2 (membrane bound transcription factor peptidase, site 2)	3	0.152	4.04	5.42

A stretch of the results above, as a working copy:
gene symbol	reagent no.	G2 robust z-score	G2 cells, % of GMNN control	raw share of cells in G2 (%)
TBX6 (T-box transcription factor 6)	3	1.69	14.9	9.09
BHMT2 (betaine--homocysteine S-methyltransferase 2)	1	1.56	14	8.56
BHMT2 (betaine--homocysteine S-methyltransferase 2)	2	0.885	9.19	10.3
BHMT2 (betaine--homocysteine S-methyltransferase 2)	3	-0.438	-0.113	4.15
STARD4 (StAR related lipid transfer domain containing 4)	1	1.78	15.5	11.2
STARD4 (StAR related lipid transfer domain containing 4)	2	4.39	33.8	22.1
STARD4 (StAR related lipid transfer domain containing 4)	3	1.27	11.9	9.05
MBTPS2 (membrane bound transcription factor peptidase, site 2)	1	-1.29	-6.08	3.44
MBTPS2 (membrane bound transcription factor peptidase, site 2)	2	-0.238	1.29	5.36
MBTPS2 (membrane bound transcription factor peptidase, site 2)	3	0.152	4.04	5.42
